Experiment [1] concerns the target DNA binding domain of E. coli response regulator KdpE (KdpEDBD) (E. coli) (UniProt P21866). The experiment in a line: AUC; sedimentation velocity, 50,000 rpm, 20°C, 50 mM HEPES pH 7.4, 150 mM KCl, 1 mM EDTA; KdpEDBD alone at 21, 42 and 84 µM; both purified.
Experiment [2] has the same target. Put plainly: SEC; analytical size-exclusion chromatography, 10/300 GL Superdex 200, 10 mM HEPES pH 7.5, 150 mM KCl; elution compared with protein standards of known mass; both purified.

No constants are given. Whether binding was seen depends on the method and setting.

B1: DNA binding domain of E. coli response regulator KdpE (KdpEDBD) (domain or fragment, UniProt P21866 124-225)
chain: APDPLVKFSDVTVDLAARVIHRGEEEVHLTPIEFRLLAVLLNNAGKVLTQRQLLNQVWGPNAVEHSHYLRIYMGHLRQKLEQDPARPRHFITETGIGYRFML
Regarding B1, the binding entry in experiment [1] is “no binding (tested: 84 µM)”; in experiment [2], “no binding”.

The values are drawn from publication PMC3264566, “Structure-Function Studies of DNA Binding Domain of Response Regulator KdpE Reveals Equal Affinity Interactions at DNA Half-Sites”.
